Experimental data as given in article doi:10.1101/2025.02.11.636922.

Columns and labels:
Test in all cases: TIRF microscopy in vitro motility assay
[1] = molecular target: T1, GFP-KlpA*Ncd-#1 (Aspergillus nidulans | Drosophila melanogaster) (UniProt P28739)
T1 sequence: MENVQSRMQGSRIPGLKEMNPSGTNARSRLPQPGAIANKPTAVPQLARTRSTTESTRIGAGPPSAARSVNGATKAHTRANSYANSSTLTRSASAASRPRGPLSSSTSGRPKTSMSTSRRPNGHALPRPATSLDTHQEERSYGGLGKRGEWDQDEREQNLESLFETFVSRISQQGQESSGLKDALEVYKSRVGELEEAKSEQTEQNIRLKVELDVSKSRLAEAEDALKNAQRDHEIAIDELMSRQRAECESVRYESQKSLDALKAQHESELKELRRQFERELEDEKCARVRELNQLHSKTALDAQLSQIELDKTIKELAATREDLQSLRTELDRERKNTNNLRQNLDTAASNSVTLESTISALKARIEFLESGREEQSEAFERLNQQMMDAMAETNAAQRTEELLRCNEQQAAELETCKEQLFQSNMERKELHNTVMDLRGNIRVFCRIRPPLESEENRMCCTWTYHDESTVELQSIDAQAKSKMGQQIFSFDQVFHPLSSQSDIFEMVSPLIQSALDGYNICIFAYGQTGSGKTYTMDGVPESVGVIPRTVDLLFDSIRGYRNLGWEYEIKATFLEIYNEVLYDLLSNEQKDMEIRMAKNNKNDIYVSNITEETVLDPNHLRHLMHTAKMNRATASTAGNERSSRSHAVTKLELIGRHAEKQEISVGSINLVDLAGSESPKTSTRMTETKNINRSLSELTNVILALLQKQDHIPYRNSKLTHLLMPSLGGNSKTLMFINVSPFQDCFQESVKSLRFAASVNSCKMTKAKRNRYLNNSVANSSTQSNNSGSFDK

[2] = molecular target: T2, GFP-KlpA*Ncd-#2 (Drosophila melanogaster | Aspergillus nidulans) (UniProt P20480)
T2 sequence: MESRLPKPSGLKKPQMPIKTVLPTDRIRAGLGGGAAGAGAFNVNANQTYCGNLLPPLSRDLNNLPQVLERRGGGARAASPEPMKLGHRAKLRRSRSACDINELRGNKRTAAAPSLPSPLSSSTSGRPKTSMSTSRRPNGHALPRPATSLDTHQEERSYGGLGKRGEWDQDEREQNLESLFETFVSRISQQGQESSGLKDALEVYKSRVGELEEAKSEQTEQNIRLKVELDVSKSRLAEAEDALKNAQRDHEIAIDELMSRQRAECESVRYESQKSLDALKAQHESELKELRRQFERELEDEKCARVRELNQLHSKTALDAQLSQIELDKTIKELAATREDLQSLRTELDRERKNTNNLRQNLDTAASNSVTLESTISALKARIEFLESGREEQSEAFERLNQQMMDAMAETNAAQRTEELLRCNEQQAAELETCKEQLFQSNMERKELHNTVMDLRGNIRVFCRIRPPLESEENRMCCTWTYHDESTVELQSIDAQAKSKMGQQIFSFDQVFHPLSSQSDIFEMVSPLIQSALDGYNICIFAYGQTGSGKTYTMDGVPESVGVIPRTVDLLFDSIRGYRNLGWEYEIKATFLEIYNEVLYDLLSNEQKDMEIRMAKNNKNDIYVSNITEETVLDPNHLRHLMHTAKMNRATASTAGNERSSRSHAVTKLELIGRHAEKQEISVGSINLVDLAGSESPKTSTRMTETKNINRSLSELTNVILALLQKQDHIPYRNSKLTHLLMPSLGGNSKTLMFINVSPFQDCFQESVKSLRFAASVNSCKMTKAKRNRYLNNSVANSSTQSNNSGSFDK

[3] = molecular target: T3, GFP-Ncd (Drosophila melanogaster) (UniProt P20480)
T3 sequence: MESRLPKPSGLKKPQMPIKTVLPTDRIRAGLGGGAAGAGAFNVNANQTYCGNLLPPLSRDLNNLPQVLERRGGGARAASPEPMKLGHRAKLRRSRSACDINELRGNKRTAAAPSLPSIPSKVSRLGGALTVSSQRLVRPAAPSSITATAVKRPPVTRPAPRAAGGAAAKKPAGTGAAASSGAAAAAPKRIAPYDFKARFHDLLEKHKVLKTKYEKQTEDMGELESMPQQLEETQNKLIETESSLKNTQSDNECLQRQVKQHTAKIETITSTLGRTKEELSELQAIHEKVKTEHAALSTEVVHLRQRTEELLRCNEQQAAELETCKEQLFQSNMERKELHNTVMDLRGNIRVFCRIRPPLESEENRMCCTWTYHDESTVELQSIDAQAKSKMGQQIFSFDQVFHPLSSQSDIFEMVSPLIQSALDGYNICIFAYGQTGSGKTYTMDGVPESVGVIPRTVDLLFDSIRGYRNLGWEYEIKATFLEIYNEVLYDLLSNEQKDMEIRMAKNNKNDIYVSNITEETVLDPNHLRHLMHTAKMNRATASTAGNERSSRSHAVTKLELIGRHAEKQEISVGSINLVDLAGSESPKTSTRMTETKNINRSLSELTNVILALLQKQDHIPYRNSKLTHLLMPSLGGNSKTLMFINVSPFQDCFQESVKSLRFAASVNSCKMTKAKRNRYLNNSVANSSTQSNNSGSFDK

[4] = molecular target: T4, GFP-KlpA (Aspergillus nidulans) (UniProt P28739)
T4 sequence: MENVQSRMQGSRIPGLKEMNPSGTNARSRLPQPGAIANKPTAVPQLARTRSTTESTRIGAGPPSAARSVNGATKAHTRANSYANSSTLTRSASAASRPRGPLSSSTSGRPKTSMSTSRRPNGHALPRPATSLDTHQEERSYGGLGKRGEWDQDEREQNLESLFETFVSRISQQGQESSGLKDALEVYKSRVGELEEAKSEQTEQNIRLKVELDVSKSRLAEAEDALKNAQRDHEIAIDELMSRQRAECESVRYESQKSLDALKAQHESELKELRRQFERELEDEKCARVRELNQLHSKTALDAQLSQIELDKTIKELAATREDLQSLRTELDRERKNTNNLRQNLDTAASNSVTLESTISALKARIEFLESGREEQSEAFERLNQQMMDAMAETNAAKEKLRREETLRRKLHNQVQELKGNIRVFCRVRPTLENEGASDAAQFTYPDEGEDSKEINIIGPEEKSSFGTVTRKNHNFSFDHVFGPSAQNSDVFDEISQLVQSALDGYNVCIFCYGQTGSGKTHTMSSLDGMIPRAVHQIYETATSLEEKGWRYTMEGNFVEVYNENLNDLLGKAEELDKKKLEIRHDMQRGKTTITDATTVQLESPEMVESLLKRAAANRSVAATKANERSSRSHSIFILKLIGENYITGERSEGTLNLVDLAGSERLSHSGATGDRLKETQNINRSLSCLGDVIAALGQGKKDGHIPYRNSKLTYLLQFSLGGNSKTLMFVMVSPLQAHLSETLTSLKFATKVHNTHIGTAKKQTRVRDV

Substance | binding [1] | binding [2] | binding [3] | binding [4]
TinA-mCherry (A. nidulans) | binds | binds | no binding | 
TinAΔC1-mCherry (A. nidulans) (domain or fragment) |  |  |  | binds

Results are given in words; binding and its absence hold for the method and conditions named. For some of these results: Binding can be weak; no strength is given. Where a sequence is shown, tags or fusion partners need not be part of it.
